These are yes or no findings as the source states them, for the method shown. Binding seen in cells or lysates may run through a third protein. Some entries that bind do so weakly or less than the wild type.
Target: EGFP-IP3R1 (endogenous inositol 1,4,5-trisphosphate receptor type 1 tagged with monomeric EGFP by gene editing) (human) (UniProt Q14643)
Assay: co-IP; GFP-Trap (anti-GFP VHH) magnetic beads with lysate supernatant of EGFP-IP3R1 HeLa cells (1% Triton X-100 lysis medium), 2 h at 4 °C; washed in 150 mM NaCl, 0.5 mM EDTA, 10 mM Tris pH 7.5; Western blot

Protein sequences, listed by entry. Tags and fused reporters are not part of them. Lines headed by an entry give the natural chain unless they say otherwise; changes in a name come on top. Chains listed by the source or under a name are the forms on record and can include a tag or linker.
EGFP-IP3R1 (endogenous inositol 1,4,5-trisphosphate receptor type 1 tagged with monomeric EGFP by gene editing) (Q14643, form named): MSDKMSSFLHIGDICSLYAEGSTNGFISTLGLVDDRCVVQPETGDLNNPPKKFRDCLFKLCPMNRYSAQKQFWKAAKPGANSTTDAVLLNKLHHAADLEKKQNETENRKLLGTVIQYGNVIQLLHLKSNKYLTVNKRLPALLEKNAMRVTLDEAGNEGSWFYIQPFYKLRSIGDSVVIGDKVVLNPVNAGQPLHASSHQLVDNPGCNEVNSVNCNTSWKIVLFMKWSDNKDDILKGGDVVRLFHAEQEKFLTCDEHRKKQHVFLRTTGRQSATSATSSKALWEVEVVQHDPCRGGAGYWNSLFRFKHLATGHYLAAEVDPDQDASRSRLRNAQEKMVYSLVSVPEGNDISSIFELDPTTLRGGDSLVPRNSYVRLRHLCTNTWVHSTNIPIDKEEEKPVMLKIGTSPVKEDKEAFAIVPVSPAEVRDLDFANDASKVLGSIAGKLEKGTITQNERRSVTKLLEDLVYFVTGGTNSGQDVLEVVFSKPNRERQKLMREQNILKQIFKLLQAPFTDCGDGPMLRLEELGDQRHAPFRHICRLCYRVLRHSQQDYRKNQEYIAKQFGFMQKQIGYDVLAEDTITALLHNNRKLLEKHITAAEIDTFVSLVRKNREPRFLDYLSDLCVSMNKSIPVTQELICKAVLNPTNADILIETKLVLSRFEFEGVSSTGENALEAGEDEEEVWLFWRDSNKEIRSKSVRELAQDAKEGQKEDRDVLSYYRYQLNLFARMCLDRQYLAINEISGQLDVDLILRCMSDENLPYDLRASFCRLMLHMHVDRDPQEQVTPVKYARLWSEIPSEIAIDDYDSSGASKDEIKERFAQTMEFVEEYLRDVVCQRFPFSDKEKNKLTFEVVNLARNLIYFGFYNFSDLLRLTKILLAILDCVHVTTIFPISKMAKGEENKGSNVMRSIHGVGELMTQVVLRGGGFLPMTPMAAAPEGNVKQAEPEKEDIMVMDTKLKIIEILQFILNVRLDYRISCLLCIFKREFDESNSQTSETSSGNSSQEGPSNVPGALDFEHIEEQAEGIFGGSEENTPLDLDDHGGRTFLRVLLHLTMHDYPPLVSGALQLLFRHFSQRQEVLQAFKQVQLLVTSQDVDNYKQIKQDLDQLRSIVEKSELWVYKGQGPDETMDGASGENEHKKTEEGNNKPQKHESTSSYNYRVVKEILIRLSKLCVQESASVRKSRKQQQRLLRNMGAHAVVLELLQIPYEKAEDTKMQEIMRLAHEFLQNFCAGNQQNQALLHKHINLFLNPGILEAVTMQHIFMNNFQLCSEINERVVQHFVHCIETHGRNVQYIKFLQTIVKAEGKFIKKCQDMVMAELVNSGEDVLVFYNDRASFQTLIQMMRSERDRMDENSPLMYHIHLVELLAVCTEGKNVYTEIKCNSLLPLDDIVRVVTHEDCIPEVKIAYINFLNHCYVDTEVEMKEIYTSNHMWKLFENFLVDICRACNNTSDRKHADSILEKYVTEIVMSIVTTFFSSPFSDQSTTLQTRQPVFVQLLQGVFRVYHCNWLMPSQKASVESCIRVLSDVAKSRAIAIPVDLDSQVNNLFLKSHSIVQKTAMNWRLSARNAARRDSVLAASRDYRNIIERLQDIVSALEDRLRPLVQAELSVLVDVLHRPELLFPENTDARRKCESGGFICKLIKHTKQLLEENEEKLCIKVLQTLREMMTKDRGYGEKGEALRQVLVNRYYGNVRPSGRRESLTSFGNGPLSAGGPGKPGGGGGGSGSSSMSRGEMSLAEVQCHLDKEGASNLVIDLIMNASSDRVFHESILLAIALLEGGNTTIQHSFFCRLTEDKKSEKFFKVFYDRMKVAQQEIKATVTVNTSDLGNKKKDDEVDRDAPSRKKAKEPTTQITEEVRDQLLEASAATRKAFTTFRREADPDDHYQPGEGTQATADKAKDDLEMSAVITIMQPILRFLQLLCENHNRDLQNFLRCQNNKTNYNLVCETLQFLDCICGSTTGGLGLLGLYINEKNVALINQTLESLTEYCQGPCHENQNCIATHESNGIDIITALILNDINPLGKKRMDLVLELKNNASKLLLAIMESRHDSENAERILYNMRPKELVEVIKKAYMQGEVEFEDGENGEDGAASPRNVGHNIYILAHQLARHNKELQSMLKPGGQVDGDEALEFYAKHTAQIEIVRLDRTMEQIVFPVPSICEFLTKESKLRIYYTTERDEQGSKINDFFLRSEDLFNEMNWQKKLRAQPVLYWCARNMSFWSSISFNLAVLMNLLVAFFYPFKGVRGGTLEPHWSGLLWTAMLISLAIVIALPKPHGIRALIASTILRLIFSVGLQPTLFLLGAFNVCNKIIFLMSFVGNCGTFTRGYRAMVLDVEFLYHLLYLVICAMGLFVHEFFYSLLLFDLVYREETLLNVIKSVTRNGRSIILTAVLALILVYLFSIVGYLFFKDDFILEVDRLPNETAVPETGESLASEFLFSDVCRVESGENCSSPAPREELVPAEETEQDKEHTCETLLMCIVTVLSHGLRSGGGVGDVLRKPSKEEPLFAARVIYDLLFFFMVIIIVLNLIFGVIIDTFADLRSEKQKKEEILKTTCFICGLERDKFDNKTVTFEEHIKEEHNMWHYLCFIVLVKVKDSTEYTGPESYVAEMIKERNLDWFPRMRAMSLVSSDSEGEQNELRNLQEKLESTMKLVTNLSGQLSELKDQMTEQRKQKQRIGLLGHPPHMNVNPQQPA
UniProt Q14571: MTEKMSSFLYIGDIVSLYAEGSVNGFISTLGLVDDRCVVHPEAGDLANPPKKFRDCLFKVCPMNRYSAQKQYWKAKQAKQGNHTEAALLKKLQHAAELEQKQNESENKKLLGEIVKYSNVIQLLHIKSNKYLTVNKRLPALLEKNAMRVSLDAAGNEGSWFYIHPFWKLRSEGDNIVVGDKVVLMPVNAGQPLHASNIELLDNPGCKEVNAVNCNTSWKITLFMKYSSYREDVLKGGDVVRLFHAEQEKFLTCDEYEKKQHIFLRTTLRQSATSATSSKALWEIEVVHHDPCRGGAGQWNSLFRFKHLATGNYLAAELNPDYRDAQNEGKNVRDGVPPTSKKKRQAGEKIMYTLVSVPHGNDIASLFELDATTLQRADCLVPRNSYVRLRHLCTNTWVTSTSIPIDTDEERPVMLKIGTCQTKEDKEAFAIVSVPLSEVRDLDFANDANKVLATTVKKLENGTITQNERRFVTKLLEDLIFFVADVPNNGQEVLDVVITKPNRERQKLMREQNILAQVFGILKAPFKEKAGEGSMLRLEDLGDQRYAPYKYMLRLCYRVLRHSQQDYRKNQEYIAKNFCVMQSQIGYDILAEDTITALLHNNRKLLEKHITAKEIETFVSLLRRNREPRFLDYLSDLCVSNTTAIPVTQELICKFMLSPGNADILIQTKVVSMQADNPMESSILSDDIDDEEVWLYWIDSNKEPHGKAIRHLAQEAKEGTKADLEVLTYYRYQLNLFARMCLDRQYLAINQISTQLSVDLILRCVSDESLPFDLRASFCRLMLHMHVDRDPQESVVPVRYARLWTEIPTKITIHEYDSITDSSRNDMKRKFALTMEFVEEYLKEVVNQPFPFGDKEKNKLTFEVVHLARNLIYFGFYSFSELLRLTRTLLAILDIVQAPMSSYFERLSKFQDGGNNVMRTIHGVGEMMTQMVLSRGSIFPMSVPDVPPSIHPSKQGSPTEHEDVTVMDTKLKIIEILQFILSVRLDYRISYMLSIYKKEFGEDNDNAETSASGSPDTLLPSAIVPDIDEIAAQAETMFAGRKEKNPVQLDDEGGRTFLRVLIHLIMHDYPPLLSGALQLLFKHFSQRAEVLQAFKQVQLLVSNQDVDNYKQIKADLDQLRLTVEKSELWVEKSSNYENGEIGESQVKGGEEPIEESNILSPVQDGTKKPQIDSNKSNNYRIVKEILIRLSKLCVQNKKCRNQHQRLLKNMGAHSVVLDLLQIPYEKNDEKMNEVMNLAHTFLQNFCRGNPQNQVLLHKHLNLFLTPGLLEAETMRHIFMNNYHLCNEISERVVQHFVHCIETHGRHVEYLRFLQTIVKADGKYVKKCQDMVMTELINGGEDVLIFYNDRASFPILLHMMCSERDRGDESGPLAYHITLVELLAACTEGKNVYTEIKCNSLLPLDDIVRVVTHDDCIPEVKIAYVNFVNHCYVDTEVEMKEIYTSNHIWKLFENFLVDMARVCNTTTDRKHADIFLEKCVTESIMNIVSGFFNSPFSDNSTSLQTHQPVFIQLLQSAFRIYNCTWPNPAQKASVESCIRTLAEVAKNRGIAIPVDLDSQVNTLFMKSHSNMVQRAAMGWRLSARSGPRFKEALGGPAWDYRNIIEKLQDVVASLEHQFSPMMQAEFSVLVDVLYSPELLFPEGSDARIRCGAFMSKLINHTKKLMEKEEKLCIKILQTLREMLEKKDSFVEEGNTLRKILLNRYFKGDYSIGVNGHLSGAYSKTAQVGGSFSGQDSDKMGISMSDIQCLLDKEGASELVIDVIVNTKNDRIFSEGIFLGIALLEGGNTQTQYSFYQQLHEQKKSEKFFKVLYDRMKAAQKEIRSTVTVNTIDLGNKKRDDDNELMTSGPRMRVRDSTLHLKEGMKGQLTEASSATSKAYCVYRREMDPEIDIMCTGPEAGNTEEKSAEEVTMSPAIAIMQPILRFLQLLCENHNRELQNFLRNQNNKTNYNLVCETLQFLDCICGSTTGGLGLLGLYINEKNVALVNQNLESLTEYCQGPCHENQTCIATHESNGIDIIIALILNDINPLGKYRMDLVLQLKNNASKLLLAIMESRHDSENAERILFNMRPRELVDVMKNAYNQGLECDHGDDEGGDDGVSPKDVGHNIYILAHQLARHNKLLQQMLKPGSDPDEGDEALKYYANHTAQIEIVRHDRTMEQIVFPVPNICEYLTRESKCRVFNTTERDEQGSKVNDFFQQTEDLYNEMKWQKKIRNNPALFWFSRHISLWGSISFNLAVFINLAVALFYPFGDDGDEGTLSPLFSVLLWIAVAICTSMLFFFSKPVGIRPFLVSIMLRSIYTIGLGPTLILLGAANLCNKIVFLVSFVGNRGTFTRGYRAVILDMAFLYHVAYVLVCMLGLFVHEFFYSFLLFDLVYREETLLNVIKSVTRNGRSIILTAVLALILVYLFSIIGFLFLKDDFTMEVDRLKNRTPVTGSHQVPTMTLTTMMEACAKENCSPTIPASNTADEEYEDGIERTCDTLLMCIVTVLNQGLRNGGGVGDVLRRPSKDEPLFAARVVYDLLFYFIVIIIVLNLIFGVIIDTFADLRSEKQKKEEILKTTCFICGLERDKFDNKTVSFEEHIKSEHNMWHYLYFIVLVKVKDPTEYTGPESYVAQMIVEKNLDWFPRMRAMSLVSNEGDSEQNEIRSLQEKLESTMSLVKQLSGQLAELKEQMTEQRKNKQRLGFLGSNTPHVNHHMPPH

binding | Substance
binds | IP3R2 (endogenous inositol 1,4,5-trisphosphate receptor type 2) (from UniProt Q14571 1-2701)
binds | IP3R3 (endogenous inositol 1,4,5-trisphosphate receptor type 3) (from UniProt Q14573 1-2671)
